Measured values from article PMC7351999.
No constants are given. Whether binding was seen depends on the method and setting.

Protein sequences, listed by entry. Tags and fused reporters are not part of them. Lines headed by an entry give the natural chain unless they say otherwise; changes in a name come on top. Chains listed by the source or under a name are the forms on record and can include a tag or linker. Residues count along the entry.
human RHOG (amino acids 1–179) (P84095, residues 1-179): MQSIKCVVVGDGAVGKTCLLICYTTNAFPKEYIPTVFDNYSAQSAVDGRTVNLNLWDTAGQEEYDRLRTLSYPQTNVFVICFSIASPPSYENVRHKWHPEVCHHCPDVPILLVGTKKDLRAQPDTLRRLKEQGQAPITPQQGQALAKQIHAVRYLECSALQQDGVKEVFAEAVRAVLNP
RHOG R66A mutant (P84095, form named): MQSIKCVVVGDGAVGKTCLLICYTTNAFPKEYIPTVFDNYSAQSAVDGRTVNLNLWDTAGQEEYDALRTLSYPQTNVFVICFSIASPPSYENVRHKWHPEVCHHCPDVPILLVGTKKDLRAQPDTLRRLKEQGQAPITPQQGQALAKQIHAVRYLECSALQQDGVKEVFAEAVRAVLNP

What was measured:
[1] = molecular target: RHOG R66A mutant (human) (UniProt P84095); assay: ITC; ELMO2^RBD injected into the cell containing GMPPNP-loaded (activated) RHOG; 20 mM Tris-HCl (pH 7.5), 100 mM NaCl, 1 mM DTT; 25 °C; both purified
[2] = molecular target: human RHOG (amino acids 1–179) (human) (UniProt P84095); assay: ITC; ELMO2^RBD injected into the cell containing GDP-loaded RHOG; 20 mM Tris-HCl (pH 7.5), 100 mM NaCl, 1 mM DTT; 25 °C; both purified
[3] = molecular target: human RHOG (amino acids 1–179) (human) (UniProt P84095); assay: ITC; ELMO2^RBD injected into the cell containing GMPPNP-loaded (activated) RHOG; 20 mM Tris-HCl (pH 7.5), 100 mM NaCl, 1 mM DTT; 25 °C; both purified

binding [1] | binding [3] | Binder | binding [2]
no binding |  | N-terminal RBD domain of murine ELMO2 (amino acids 1–80) (domain or fragment, UniProt Q8BHL5 1-80) MPPPSDIVKVAIEWPGANAQLLEIDQKRPLASIIKEVCDGWSLPNPEYYTLRYADGPQLYVTEQTRNDIKNGTILQLAVS | no binding (condition: RHOG loaded with GDP)
 | no binding | ELMO2^RBD K9A mutant (domain or fragment, UniProt Q8BHL5 1-80) MPPPSDIVAVAIEWPGANAQLLEIDQKRPLASIIKEVCDGWSLPNPEYYTLRYADGPQLYVTEQTRNDIKNGTILQLAVS | 
